Measured data: PubChem BioAssay AID686938 (Drosophila RNAi Screening Center, 2013)

Screen: 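Knock-downs reducing store-operated calcium influx in Drosophila cells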 (primary screen)
Cell system: Drosophila S2R+ cells
Reagent: long dsRNA against Drosophila genes, about 0.25 µg dsRNA per well, roughly 10,000 cells
Time to read-out: 5 days of knock-down before the calcium assay
Challenge: thapsigargin (SERCA pump blocker) to empty calcium stores; entry signal taken 4 min after adding it
Detection: 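Duplicate raw fluo-4 intensities per well from a plate reader, at rest and four minutes after thapsigargin emptied calcium stores; entry-to-rest ratio filled for only some wells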
Direction: calcium entry signal: higher = stronger calcium signal after store depletion; resting calcium signal: higher = higher resting calcium signal
Hit rule: 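Called when the plate z-score of the entry-to-rest ratio, mean of duplicates, falls below −3; wells with low overall dye signal (Fmax z below −2) or more than five off-targets excluded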
Calls: active = strongly reduced calcium entry; inactive = no strong reduction
In all, the deposit lists about 23,000 reagents; below is an unselected part of those that have a named target and a result. In the full data, 75 (0.33%) got an active call. 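Raw plate signals without normalisation; calls rest on plate z-scores that were not deposited; ratio present for only 364 wells.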 Reagent sequences are not shown. Not given: the dose of the treatment.

CG6983 [DRSC10757] gave calcium entry signal, replicate 1 (fluorescence units) = 4.00e7; calcium entry signal, replicate 2 (fluorescence units) = 3.18e7; resting calcium signal, replicate 1 (fluorescence units) = 2.73e7; resting calcium signal, replicate 2 (fluorescence units) = 1.34e7; inactive.
With knock-down of CG3630 [DRSC18499], the record shows calcium entry signal, replicate 1 (fluorescence units) = 2.57e7; calcium entry signal, replicate 2 (fluorescence units) = 3.47e7; resting calcium signal, replicate 1 (fluorescence units) = 1.32e7; resting calcium signal, replicate 2 (fluorescence units) = 1.72e7; inactive.
Against Gr64a (Gustatory receptor 64a) [DRSC21713] the deposit lists calcium entry signal, replicate 1 (fluorescence units) = 3.00e7; calcium entry signal, replicate 2 (fluorescence units) = 2.52e7; resting calcium signal, replicate 1 (fluorescence units) = 1.58e7; resting calcium signal, replicate 2 (fluorescence units) = 1.23e7; inactive.
Knock-down of CG31807 [DRSC01550] came out at: calcium entry signal, replicate 1 (fluorescence units) = 2.04e7; calcium entry signal, replicate 2 (fluorescence units) = 3.34e7; resting calcium signal, replicate 1 (fluorescence units) = 1.12e7; resting calcium signal, replicate 2 (fluorescence units) = 1.36e7; inactive.
For CG7024 [DRSC18414], the values are calcium entry signal, replicate 1 (fluorescence units) = 3.13e7; calcium entry signal, replicate 2 (fluorescence units) = 3.99e7; resting calcium signal, replicate 1 (fluorescence units) = 1.57e7; resting calcium signal, replicate 2 (fluorescence units) = 2.05e7; inactive.
CG10165 [DRSC02017] gave calcium entry signal, replicate 1 (fluorescence units) = 3.58e7; resting calcium signal, replicate 1 (fluorescence units) = 1.94e7; inactive.
For CG9886 [DRSC00732], the values are calcium entry signal, replicate 1 (fluorescence units) = 3.76e7; resting calcium signal, replicate 1 (fluorescence units) = 2.09e7; inactive.
For Nf1 (Neurofibromin 1) [DRSC16758], the values are calcium entry signal, replicate 1 (fluorescence units) = 2.62e7; calcium entry signal, replicate 2 (fluorescence units) = 2.74e7; resting calcium signal, replicate 1 (fluorescence units) = 1.16e7; resting calcium signal, replicate 2 (fluorescence units) = 1.31e7; inactive.

Records above whose gene name begins with C or c:
CG6983 [DRSC10757] → calcium entry signal, replicate 1 (fluorescence units): 4.00e7; calcium entry signal, replicate 2 (fluorescence units): 3.18e7; resting calcium signal, replicate 1 (fluorescence units): 2.73e7; resting calcium signal, replicate 2 (fluorescence units): 1.34e7; call: inactive
CG3630 [DRSC18499] → calcium entry signal, replicate 1 (fluorescence units): 2.57e7; calcium entry signal, replicate 2 (fluorescence units): 3.47e7; resting calcium signal, replicate 1 (fluorescence units): 1.32e7; resting calcium signal, replicate 2 (fluorescence units): 1.72e7; call: inactive
CG31807 [DRSC01550] → calcium entry signal, replicate 1 (fluorescence units): 2.04e7; calcium entry signal, replicate 2 (fluorescence units): 3.34e7; resting calcium signal, replicate 1 (fluorescence units): 1.12e7; resting calcium signal, replicate 2 (fluorescence units): 1.36e7; call: inactive
CG7024 [DRSC18414] → calcium entry signal, replicate 1 (fluorescence units): 3.13e7; calcium entry signal, replicate 2 (fluorescence units): 3.99e7; resting calcium signal, replicate 1 (fluorescence units): 1.57e7; resting calcium signal, replicate 2 (fluorescence units): 2.05e7; call: inactive
CG10165 [DRSC02017] → calcium entry signal, replicate 1 (fluorescence units): 3.58e7; resting calcium signal, replicate 1 (fluorescence units): 1.94e7; call: inactive
CG9886 [DRSC00732] → calcium entry signal, replicate 1 (fluorescence units): 3.76e7; resting calcium signal, replicate 1 (fluorescence units): 2.09e7; call: inactive

The listing continues:
Against Bfc (Booster for Crq) [DRSC08623], the entry reads calcium entry signal, replicate 1 (fluorescence units) = 3.01e7; calcium entry signal, replicate 2 (fluorescence units) = 4.44e7; resting calcium signal, replicate 1 (fluorescence units) = 1.63e7; resting calcium signal, replicate 2 (fluorescence units) = 1.97e7; inactive.
With knock-down of CG11356 [DRSC19401], the screen gave calcium entry signal, replicate 1 (fluorescence units) = 3.43e7; calcium entry signal, replicate 2 (fluorescence units) = 4.46e7; resting calcium signal, replicate 1 (fluorescence units) = 1.71e7; resting calcium signal, replicate 2 (fluorescence units) = 1.99e7; inactive.
For dnt (doughnut on 2) [DRSC03522], the values are calcium entry signal, replicate 1 (fluorescence units) = 4.14e7; resting calcium signal, replicate 1 (fluorescence units) = 2.33e7; inactive.
CG15464 (retired record) [DRSC18047] scored calcium entry signal, replicate 1 (fluorescence units) = 3.04e7; calcium entry signal, replicate 2 (fluorescence units) = 4.56e7; resting calcium signal, replicate 1 (fluorescence units) = 1.54e7; resting calcium signal, replicate 2 (fluorescence units) = 2.20e7; inactive.
Knock-down of CG15464 (retired record) [DRSC22086] gave: calcium entry signal, replicate 1 (fluorescence units) = 3.86e7; calcium entry signal, replicate 2 (fluorescence units) = 4.11e7; resting calcium signal, replicate 1 (fluorescence units) = 1.81e7; resting calcium signal, replicate 2 (fluorescence units) = 2.40e7; inactive.
For Cda9 (Chitin deacetylase-like 9) [DRSC06593] the deposit lists calcium entry signal, replicate 1 (fluorescence units) = 4.24e7; calcium entry signal, replicate 2 (fluorescence units) = 4.02e7; resting calcium signal, replicate 1 (fluorescence units) = 1.89e7; resting calcium signal, replicate 2 (fluorescence units) = 1.92e7; inactive.
